{
  "sequences": {"note": "The chains behind the UniProt entries cited, without tags or fusion partners. Where a name states a change or a piece, a line headed by the entry shows the natural chain unless it says otherwise.", "UniProt P98194": "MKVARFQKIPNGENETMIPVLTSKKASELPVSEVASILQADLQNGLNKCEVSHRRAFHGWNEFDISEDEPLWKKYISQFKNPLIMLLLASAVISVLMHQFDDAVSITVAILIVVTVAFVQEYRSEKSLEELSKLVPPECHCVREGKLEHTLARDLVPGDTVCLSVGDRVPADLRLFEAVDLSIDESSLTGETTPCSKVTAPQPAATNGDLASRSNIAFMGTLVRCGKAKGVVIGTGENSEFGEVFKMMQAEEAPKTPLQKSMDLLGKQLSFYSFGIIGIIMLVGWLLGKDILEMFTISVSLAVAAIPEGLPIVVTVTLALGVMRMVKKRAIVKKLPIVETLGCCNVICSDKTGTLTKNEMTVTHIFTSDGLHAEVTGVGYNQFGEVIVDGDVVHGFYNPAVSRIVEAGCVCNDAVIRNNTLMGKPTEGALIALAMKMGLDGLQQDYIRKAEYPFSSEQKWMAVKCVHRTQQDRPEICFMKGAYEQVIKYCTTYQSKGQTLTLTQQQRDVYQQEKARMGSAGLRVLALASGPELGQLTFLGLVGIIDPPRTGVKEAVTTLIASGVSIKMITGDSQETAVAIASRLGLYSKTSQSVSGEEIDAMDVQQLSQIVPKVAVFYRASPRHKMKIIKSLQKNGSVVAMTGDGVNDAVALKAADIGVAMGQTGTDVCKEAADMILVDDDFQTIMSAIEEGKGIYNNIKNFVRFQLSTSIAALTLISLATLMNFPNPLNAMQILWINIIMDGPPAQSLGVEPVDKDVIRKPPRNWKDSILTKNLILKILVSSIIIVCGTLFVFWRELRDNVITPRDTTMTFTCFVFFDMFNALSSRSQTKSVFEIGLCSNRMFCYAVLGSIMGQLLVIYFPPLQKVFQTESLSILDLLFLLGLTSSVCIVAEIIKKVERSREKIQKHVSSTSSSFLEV", "UniProt Q9BUN8": "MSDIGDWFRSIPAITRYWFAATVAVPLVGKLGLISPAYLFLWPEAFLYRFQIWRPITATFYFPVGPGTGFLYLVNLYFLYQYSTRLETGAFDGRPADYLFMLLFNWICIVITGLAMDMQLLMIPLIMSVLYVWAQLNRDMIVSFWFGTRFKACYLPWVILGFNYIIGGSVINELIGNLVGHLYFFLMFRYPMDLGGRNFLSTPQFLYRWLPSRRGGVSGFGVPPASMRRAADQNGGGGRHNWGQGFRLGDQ", "UniProt P48444": "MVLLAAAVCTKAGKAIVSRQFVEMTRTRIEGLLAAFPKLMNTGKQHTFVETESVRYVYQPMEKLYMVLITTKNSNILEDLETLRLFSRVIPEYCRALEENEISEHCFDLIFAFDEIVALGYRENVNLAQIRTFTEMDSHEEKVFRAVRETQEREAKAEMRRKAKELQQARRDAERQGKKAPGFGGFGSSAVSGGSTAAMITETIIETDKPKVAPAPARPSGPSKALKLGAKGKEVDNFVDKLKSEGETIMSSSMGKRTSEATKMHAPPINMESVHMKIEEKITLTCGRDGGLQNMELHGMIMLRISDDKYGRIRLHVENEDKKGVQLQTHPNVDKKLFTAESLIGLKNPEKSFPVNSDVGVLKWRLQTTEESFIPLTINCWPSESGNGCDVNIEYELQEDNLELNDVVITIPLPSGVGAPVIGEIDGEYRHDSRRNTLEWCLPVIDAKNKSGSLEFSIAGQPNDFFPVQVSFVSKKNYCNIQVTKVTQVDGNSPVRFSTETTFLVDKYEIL", "UniProt O60879": "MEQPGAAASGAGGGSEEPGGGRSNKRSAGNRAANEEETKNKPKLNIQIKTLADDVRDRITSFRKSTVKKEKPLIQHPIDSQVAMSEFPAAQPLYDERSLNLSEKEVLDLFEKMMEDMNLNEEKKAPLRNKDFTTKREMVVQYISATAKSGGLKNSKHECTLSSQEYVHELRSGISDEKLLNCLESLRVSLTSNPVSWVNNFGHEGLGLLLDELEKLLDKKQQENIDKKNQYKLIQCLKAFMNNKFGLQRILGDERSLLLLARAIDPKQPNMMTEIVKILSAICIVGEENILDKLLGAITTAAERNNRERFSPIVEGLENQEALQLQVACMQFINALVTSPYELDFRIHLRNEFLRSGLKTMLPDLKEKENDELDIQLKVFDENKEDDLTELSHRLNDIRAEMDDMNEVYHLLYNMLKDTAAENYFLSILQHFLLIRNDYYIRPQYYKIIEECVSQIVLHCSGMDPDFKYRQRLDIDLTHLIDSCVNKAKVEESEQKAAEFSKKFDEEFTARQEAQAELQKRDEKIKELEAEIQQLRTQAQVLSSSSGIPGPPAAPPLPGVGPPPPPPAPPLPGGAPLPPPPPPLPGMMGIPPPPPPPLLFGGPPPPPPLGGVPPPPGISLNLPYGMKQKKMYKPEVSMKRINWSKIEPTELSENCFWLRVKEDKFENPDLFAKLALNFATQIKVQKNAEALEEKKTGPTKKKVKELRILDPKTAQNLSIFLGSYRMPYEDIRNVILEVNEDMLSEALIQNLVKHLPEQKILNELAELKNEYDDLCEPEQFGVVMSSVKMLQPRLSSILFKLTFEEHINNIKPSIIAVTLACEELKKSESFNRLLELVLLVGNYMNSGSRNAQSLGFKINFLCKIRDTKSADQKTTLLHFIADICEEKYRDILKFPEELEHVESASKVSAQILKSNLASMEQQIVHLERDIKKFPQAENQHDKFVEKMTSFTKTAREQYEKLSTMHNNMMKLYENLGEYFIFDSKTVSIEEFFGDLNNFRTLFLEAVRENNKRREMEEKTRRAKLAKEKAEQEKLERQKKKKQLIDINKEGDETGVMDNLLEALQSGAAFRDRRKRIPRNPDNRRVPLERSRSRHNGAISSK", "UniProt Q9UM22": "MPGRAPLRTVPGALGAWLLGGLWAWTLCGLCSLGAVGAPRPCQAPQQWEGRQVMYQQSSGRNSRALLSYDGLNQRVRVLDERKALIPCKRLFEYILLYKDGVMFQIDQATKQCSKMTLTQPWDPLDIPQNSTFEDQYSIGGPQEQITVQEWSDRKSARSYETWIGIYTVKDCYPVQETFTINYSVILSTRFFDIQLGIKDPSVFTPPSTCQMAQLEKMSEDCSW", "UniProt Q9BQ75": "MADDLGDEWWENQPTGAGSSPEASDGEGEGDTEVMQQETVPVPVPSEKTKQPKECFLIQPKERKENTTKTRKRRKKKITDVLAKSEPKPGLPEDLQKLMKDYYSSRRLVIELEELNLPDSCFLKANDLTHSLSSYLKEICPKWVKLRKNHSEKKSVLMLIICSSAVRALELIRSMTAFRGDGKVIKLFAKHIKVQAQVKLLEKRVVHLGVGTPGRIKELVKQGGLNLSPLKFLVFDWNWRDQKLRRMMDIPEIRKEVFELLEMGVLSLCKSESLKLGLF", "UniProt O00244": "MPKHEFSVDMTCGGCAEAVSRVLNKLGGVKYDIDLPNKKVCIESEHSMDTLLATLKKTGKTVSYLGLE", "UniProt P55212": "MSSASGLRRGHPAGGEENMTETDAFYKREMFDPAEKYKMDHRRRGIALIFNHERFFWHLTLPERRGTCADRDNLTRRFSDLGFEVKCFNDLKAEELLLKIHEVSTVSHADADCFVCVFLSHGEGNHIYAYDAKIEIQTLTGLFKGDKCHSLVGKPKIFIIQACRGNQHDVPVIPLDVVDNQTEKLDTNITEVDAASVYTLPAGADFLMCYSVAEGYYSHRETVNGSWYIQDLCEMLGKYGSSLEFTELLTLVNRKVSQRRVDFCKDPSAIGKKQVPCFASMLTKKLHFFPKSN", "UniProt Q9H000": "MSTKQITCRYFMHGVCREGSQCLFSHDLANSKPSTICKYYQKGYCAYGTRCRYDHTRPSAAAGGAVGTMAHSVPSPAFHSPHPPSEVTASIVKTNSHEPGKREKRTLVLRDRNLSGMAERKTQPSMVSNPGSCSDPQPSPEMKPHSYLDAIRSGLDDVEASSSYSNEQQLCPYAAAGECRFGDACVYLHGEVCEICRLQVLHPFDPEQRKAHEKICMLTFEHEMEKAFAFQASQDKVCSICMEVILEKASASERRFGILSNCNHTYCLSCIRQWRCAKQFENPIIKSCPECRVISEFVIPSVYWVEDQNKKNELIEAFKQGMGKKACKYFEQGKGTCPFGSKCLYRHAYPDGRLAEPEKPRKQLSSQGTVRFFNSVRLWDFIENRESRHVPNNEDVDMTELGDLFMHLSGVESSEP", "UniProt Q9UKS7": "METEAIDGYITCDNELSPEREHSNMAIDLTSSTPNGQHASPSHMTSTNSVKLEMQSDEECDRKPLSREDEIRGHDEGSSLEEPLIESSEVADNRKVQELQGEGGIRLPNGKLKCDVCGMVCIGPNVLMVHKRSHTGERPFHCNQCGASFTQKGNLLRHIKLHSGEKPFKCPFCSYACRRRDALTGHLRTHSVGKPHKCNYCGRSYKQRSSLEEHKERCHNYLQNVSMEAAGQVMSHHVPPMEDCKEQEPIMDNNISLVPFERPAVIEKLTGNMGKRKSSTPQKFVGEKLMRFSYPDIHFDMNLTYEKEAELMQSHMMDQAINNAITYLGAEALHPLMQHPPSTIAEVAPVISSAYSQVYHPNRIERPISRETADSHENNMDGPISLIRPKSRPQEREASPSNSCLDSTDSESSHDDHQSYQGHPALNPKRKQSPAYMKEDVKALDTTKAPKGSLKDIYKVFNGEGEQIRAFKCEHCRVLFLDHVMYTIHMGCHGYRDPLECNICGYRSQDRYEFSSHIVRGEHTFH", "UniProt Q13557, whole entry": "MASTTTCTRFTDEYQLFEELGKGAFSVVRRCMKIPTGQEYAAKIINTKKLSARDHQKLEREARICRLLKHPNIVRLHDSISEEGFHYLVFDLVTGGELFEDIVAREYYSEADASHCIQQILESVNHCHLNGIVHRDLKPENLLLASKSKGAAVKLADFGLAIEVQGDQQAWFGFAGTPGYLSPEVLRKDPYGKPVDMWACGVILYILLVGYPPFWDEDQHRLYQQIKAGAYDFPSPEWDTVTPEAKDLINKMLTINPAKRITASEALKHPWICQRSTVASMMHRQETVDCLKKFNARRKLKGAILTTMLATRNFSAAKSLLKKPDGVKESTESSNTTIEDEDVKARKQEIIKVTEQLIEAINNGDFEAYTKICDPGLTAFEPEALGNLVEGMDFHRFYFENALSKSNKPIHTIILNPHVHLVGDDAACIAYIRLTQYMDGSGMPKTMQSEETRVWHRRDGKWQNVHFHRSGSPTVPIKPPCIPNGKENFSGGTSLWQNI", "UniProt O43772": "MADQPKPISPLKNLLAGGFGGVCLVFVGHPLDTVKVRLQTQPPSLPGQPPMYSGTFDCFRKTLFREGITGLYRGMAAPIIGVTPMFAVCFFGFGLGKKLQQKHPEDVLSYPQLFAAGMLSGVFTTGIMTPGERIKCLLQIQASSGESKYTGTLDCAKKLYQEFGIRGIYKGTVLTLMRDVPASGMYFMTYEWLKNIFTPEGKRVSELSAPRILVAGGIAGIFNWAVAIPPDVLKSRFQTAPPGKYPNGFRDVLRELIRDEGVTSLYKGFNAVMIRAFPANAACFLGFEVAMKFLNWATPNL", "UniProt P43243": "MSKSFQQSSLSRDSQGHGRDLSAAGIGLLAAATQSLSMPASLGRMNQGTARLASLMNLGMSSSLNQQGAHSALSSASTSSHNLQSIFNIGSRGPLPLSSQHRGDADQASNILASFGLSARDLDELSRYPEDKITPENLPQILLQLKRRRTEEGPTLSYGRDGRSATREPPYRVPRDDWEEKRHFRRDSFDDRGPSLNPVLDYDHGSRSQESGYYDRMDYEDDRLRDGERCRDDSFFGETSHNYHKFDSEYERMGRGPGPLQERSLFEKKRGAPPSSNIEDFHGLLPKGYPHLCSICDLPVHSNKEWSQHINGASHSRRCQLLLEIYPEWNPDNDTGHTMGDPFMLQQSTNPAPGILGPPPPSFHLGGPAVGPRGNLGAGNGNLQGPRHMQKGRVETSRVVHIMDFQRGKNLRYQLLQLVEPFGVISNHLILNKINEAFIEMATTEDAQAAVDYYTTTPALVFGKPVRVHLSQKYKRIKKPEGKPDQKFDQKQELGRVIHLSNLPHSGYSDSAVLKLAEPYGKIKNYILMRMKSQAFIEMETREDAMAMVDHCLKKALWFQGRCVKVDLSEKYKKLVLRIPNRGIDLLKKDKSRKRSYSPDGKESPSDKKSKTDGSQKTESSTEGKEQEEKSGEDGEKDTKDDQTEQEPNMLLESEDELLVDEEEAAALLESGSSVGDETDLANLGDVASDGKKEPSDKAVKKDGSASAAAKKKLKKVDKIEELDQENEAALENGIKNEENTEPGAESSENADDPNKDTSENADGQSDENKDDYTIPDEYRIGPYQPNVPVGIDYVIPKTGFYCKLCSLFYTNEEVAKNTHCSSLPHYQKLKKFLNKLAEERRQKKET", "UniProt Q9UH03, whole entry": "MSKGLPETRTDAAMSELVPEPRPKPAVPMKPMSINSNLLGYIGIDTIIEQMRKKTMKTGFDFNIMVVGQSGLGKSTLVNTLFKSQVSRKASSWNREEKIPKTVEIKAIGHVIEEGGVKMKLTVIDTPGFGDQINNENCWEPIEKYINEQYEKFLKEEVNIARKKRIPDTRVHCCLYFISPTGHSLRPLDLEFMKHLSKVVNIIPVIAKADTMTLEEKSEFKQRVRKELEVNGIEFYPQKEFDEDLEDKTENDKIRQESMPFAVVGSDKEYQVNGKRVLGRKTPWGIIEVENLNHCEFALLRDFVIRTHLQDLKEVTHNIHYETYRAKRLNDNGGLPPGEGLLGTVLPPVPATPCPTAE"},
  "source": "the supplement of paper PMC6411743",
  "note": "± gives the standard deviation of the averaged measurements. The list shows a part of the results.",
  "data": [
    {"compound": "Nc1nc2c(ncn2[C@@H]2O[C@H](COP(=O)(O)OP(=O)(O)OP(=O)(O)O)[C@@H](O)[C@H]2O)c(=O)[nH]1 [guanosine triphosphate]", "test": "NP40-soluble protein abundance relative to vehicle (solubility fold change) (ratio); higher = more soluble protein in presence of GTP", "details": "concentration: 6mM", "method_in_brief": "(§1)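 Eight concentrations, 0.1 to 10 mM, were tested on Jurkat crude lysate for 10 min at room temperature and then 3 min at 37 °C, in three independent experiments. The lysate was solubilised with 0.8% NP40 and benzonase, ultracentrifuged, and the supernatant TMT-labelled for LC-MS/MS. Each value is the fold change against the detergent-processed vehicle in its own replicate, from vsn-normalised intensities.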", "values": [
      {"target": "C9K025 and related entries (UniProt P18077)", "NP40-soluble protein abundance": "0.846 ± 0.33"},
      {"target": "B4E2Q0 and related entries (UniProt P98194)", "NP40-soluble protein abundance": "0.932 ± 0.046"},
      {"target": "B7Z9U0 and related entries (UniProt Q9UFF9)", "NP40-soluble protein abundance": "1.1 ± 0.17"},
      {"target": "B4E1G1 and related entries (UniProt Q9BUN8)", "NP40-soluble protein abundance": "0.964 ± 0.035"},
      {"target": "C9J8Q1 and related entries (UniProt Q9UMS0)", "NP40-soluble protein abundance": "0.96 ± 0.2"},
      {"target": "B1AH77 and related entries (UniProt P15153)", "NP40-soluble protein abundance": "0.879 ± 0.051"},
      {"target": "B0YIW6 and related entries (UniProt P48444)", "NP40-soluble protein abundance": "1.01 ± 0.083"},
      {"target": "B4DGU4 and related entries (UniProt P35222)", "NP40-soluble protein abundance": "1 ± 0.098"},
      {"target": "B7ZBK4 and related entries (UniProt Q92664)", "NP40-soluble protein abundance": "1.01 ± 0.16"},
      {"target": "C9J6U3 and related entries (UniProt O60879)", "NP40-soluble protein abundance": "0.985 ± 0.063"},
      {"target": "C9J2Y1 and related entries (UniProt P49116)", "NP40-soluble protein abundance": "0.936 ± 0.026"},
      {"target": "C9JCC6 and related entries (UniProt Q14919)", "NP40-soluble protein abundance": "0.915 ± 0.12"},
      {"target": "B4DDD6 and related entries (UniProt Q9UJU6)", "NP40-soluble protein abundance": "0.865 ± 0.047"},
      {"target": "B4DJ62 and related entries (UniProt Q99719)", "NP40-soluble protein abundance": "1.04 ± 0.053"},
      {"target": "D6RIH7 and related entries (UniProt Q9UM22)", "NP40-soluble protein abundance": "0.908 ± 0.13"},
      {"target": "A6NIW2 and related entries (UniProt Q5JSL3)", "NP40-soluble protein abundance": "1.01 ± 0.12"},
      {"target": "C9IY68 and related entries (UniProt Q9BQ75)", "NP40-soluble protein abundance": "1.22 ± 0.094"},
      {"target": "B8ZZU8 and related entries (UniProt Q15370)", "NP40-soluble protein abundance": "0.92 ± 0.042"},
      {"target": "B7ZBM8 and related entries (UniProt O14662)", "NP40-soluble protein abundance": "1.05 ± 0.048"},
      {"target": "E5RIH5 and related entries (UniProt Q6NXR4)", "NP40-soluble protein abundance": "1.07 ± 0.032"},
      {"target": "A8MT02 and related entries (UniProt P14678)", "NP40-soluble protein abundance": "1.29 ± 0.19"},
      {"target": "D6RER5 and related entries (UniProt Q9NVA2)", "NP40-soluble protein abundance": "0.97 ± 0.084"},
      {"target": "E5RGN3 and related entries (UniProt O00244)", "NP40-soluble protein abundance": "0.988 ± 0.067"},
      {"target": "D6RHU3 and related entries (UniProt P55212)", "NP40-soluble protein abundance": "0.886 ± 0.06"},
      {"target": "D6R9Z7 and related entries (UniProt P15954)", "NP40-soluble protein abundance": "0.984 ± 0.07"},
      {"target": "C9J494 and related entries (UniProt Q9H000)", "NP40-soluble protein abundance": "1.01 ± 0.056"},
      {"target": "E7EMW7 and related entries (UniProt O95071)", "NP40-soluble protein abundance": "1.31 ± 0.29"},
      {"target": "A8K7Q2 and related entries (UniProt P11142)", "NP40-soluble protein abundance": "0.956 ± 0.078"},
      {"target": "E7EMA9 and related entries (UniProt Q32M88)", "NP40-soluble protein abundance": "0.972 ± 0.06"},
      {"target": "B4DWF2 and related entries (UniProt Q9UKS7)", "NP40-soluble protein abundance": "1.21 ± 0.058"},
      {"target": "D6R938 and related entries (UniProt Q13557)", "NP40-soluble protein abundance": "1.13 ± 0.1"},
      {"target": "B4DKB2 and related entries (UniProt P42892)", "NP40-soluble protein abundance": "1.41 ± 0.076"},
      {"target": "C9JPE1 and related entries (UniProt O43772)", "NP40-soluble protein abundance": "0.895 ± 0.089"},
      {"target": "E5RJF5 and related entries (UniProt P08133)", "NP40-soluble protein abundance": "0.864 ± 0.03"},
      {"target": "D6RAN4 and related entries (UniProt P32969)", "NP40-soluble protein abundance": "0.898 ± 0.28"},
      {"target": "A8MUS3 and related entries (UniProt P62750)", "NP40-soluble protein abundance": "0.891 ± 0.17"},
      {"target": "A8MXP9 and related entries (UniProt P43243)", "NP40-soluble protein abundance": "1.04 ± 0.047"},
      {"target": "B1AHR1 and related entries (UniProt Q9UH03)", "NP40-soluble protein abundance": "1.06 ± 0.16"}
    ]},
    {"compound": "Nc1nc2c(ncn2[C@@H]2O[C@H](COP(=O)(O)OP(=O)(O)OP(=O)(O)O)[C@@H](O)[C@H]2O)c(=O)[nH]1 [guanosine triphosphate]", "test": "NP40-soluble protein abundance relative to vehicle (solubility fold change) (ratio); higher = more soluble protein in presence of GTP", "details": "concentration: 8mM", "method_in_brief": "as §1", "values": [
      {"target": "C9K025 and related entries (UniProt P18077)", "NP40-soluble protein abundance": "0.503 ± 0.14"},
      {"target": "B4E2Q0 and related entries (UniProt P98194)", "NP40-soluble protein abundance": "0.9354 ± 0.0018"},
      {"target": "B7Z9U0 and related entries (UniProt Q9UFF9)", "NP40-soluble protein abundance": "1.2 ± 0.27"},
      {"target": "B4E1G1 and related entries (UniProt Q9BUN8)", "NP40-soluble protein abundance": "1.06 ± 0.028"},
      {"target": "C9J8Q1 and related entries (UniProt Q9UMS0)", "NP40-soluble protein abundance": "0.919 ± 0.17"},
      {"target": "B1AH77 and related entries (UniProt P15153)", "NP40-soluble protein abundance": "0.837 ± 0.052"},
      {"target": "B0YIW6 and related entries (UniProt P48444)", "NP40-soluble protein abundance": "0.975 ± 0.059"},
      {"target": "B4DGU4 and related entries (UniProt P35222)", "NP40-soluble protein abundance": "1.03 ± 0.058"},
      {"target": "B7ZBK4 and related entries (UniProt Q92664)", "NP40-soluble protein abundance": "1.04 ± 0.11"},
      {"target": "C9J6U3 and related entries (UniProt O60879)", "NP40-soluble protein abundance": "0.993 ± 0.044"},
      {"target": "C9J2Y1 and related entries (UniProt P49116)", "NP40-soluble protein abundance": "0.966 ± 0.048"},
      {"target": "C9JCC6 and related entries (UniProt Q14919)", "NP40-soluble protein abundance": "0.817 ± 0.18"},
      {"target": "B4DDD6 and related entries (UniProt Q9UJU6)", "NP40-soluble protein abundance": "0.881 ± 0.076"},
      {"target": "B4DJ62 and related entries (UniProt Q99719)", "NP40-soluble protein abundance": "1.09 ± 0.026"},
      {"target": "D6RIH7 and related entries (UniProt Q9UM22)", "NP40-soluble protein abundance": "0.88 ± 0.085"},
      {"target": "A6NIW2 and related entries (UniProt Q5JSL3)", "NP40-soluble protein abundance": "1.01 ± 0.065"},
      {"target": "C9IY68 and related entries (UniProt Q9BQ75)", "NP40-soluble protein abundance": "1.23 ± 0.12"},
      {"target": "B8ZZU8 and related entries (UniProt Q15370)", "NP40-soluble protein abundance": "0.878 ± 0.09"},
      {"target": "B7ZBM8 and related entries (UniProt O14662)", "NP40-soluble protein abundance": "1.02 ± 0.13"},
      {"target": "E5RIH5 and related entries (UniProt Q6NXR4)", "NP40-soluble protein abundance": "1.08 ± 0.058"},
      {"target": "A8MT02 and related entries (UniProt P14678)", "NP40-soluble protein abundance": "1.36 ± 0.23"},
      {"target": "D6RER5 and related entries (UniProt Q9NVA2)", "NP40-soluble protein abundance": "1.04 ± 0.11"},
      {"target": "E5RGN3 and related entries (UniProt O00244)", "NP40-soluble protein abundance": "0.866 ± 0.11"},
      {"target": "D6RHU3 and related entries (UniProt P55212)", "NP40-soluble protein abundance": "0.853 ± 0.054"},
      {"target": "D6R9Z7 and related entries (UniProt P15954)", "NP40-soluble protein abundance": "1.02 ± 0.094"},
      {"target": "C9J494 and related entries (UniProt Q9H000)", "NP40-soluble protein abundance": "0.963 ± 0.024"},
      {"target": "E7EMW7 and related entries (UniProt O95071)", "NP40-soluble protein abundance": "1.31 ± 0.29"},
      {"target": "A8K7Q2 and related entries (UniProt P11142)", "NP40-soluble protein abundance": "0.986 ± 0.11"},
      {"target": "E7EMA9 and related entries (UniProt Q32M88)", "NP40-soluble protein abundance": "0.972 ± 0.16"},
      {"target": "B4DWF2 and related entries (UniProt Q9UKS7)", "NP40-soluble protein abundance": "1.3 ± 0.13"},
      {"target": "D6R938 and related entries (UniProt Q13557)", "NP40-soluble protein abundance": "1.09 ± 0.17"},
      {"target": "B4DKB2 and related entries (UniProt P42892)", "NP40-soluble protein abundance": "1.45 ± 0.099"},
      {"target": "C9JPE1 and related entries (UniProt O43772)", "NP40-soluble protein abundance": "0.859 ± 0.09"},
      {"target": "E5RJF5 and related entries (UniProt P08133)", "NP40-soluble protein abundance": "0.829 ± 0.051"},
      {"target": "D6RAN4 and related entries (UniProt P32969)", "NP40-soluble protein abundance": "0.699 ± 0.2"},
      {"target": "A8MUS3 and related entries (UniProt P62750)", "NP40-soluble protein abundance": "0.773 ± 0.18"},
      {"target": "A8MXP9 and related entries (UniProt P43243)", "NP40-soluble protein abundance": "1.06 ± 0.056"},
      {"target": "B1AHR1 and related entries (UniProt Q9UH03)", "NP40-soluble protein abundance": "1.09 ± 0.17"}
    ]}
  ]
}
